# According to PubChem BioAssay AID330 (DTP/NCI, 2004):
# The list shows only some results of the screen, not a fair sample: it is rich in T/C values a quarter to a half above the control, in often repeated tests (any T/C) and in doses without a T/C. Other doses and runs of a compound stand elsewhere. T/C is the treated group as % of the vehicle group. Some doses have a count of surviving animals in place of a T/C: the source files T/C as zero there, which appears to mark a toxic dose or a test without result, not a measured value. Some doses without a T/C left all or most animals alive at the check, yet need not have been tolerated: the source hardly ever lists a survival T/C far under the control, and the zero likely stands for such cases as well. Survivors were counted at the toxicity check, usually on the fifth day, unless a day is given; later deaths do not show. Schedules are NCI's codes, read here as Q, the interval in days (D) or hours (H), X, the number of doses. For survival time, this PubChem deposit counts one and a half times the control or more as active, and values a quarter to a half above the control carry no call in these data; other NCI protocols may use other cut-offs. Some doses were run more than once; the results are listed from low to high. Some T/C values carry the count of animals alive at the toxicity check (mostly the fifth day); where none is given, no animal had died by that day.
# Tested on: P388 leukemia ip, CD2F1 mice, survival T/C
# Test: NCI In Vivo Anticancer Drug Screen. Data for tumor model P388 Leukemia (intraperitoneal) in CD2F1 (CDF1) mice
# Conditions: T/C endpoint: median survival time, higher T/C = longer survival
# [1] = dose: 100.0 mg/kg/injection, schedule: Q01DX009 (ip), vehicle: saline with Tween-80
# [2] = dose: 50.0 mg/kg/injection, schedule: Q01DX009 (ip), vehicle: Klucel (hydroxypropylcellulose) (HPC)
# [3] = dose: 25.0 mg/kg/injection, schedule: Q01DX009 (ip), vehicle: saline with Tween-80
# [4] = dose: 50.0 mg/kg/injection, schedule: Q01DX009 (ip), vehicle: saline with Tween-80
# [5] = dose: 200.0 mg/kg/injection, schedule: Q01DX009 (ip), vehicle: saline with Tween-80
# [6] = dose: 50.0 mg/kg/injection, schedule: Q01DX005 (ip), vehicle: saline with Tween-80
# [7] = dose: 200.0 mg/kg/injection, schedule: Q01DX005 (ip), vehicle: saline with Tween-80
# [8] = dose: 100.0 mg/kg/injection, schedule: Q01DX009 (ip), vehicle: saline
# [9] = dose: 200.0 mg/kg/injection, schedule: Q01DX005 (ip), vehicle: Klucel (hydroxypropylcellulose) (HPC)
# [10] = dose: 200.0 mg/kg/injection, schedule: Q04DX003 (ip), vehicle: saline
# [11] = dose: 12.5 mg/kg/injection, schedule: Q01DX009 (ip), vehicle: saline with Tween-80
# [12] = dose: 200.0 mg/kg/injection, schedule: Q01DX009 (ip), vehicle: saline
# [13] = dose: 50.0 mg/kg/injection, schedule: Q01DX009 (ip), vehicle: saline
# [14] = dose: 100.0 mg/kg/injection, schedule: Q01DX009 (ip), vehicle: Klucel (hydroxypropylcellulose) (HPC)
# [15] = dose: 200.0 mg/kg/injection, schedule: Q01DX009 (ip), vehicle: Klucel (hydroxypropylcellulose) (HPC)
smiles,measurement,setting,value
O=C(O)CC(=O)c1ccccc1,survivor count,[1],6 of 6
CCCCN(CCCC)Cc1c(C)[nH]c2ccc(N(C)C)cc2c1=O,survivor count,"dose: 200.0 mg/kg/injection, schedule: Q01DX009 (ip), vehicle: suspension in saline",0 of 6
CCC[P+](C)(CCC#N)c1ccccc1 (stereo unspecified),survivor count,"dose: 25.0 mg/kg/injection, schedule: Q01DX009 (ip), vehicle: Klucel (hydroxypropylcellulose) (HPC)",4 of 6
same,survivor count,[2],0 of 6
CCN(CC)CCCCNc1ccc(NCCCCN(CC)CC)c2c1C(=O)c1ccccc1C2=O,survivor count,"dose: 12.5 mg/kg/injection, schedule: Q01DX009 (ip), vehicle: saline",5 of 6
same,T/C,[3],128 % of control
same,survivor count,"dose: 25.0 mg/kg/injection, schedule: Q01DX009 (ip), vehicle: saline",6 of 6
same,T/C,[4],128 % of control
same,survivor count,[1],0 of 6
same,survivor count,[5],1 of 6
COCN(Cc1ccccc1)C[Si](C)(C)C,survivor count,"dose: 400.0 mg/kg/injection, schedule: Q01DX001 (ip), vehicle: saline with Tween-80",3 of 6
C[CH2][Ge]([CH2]C)[CH2]/C(C)=C(/C)[CH2][Ge]([CH2]C)[CH2]C,survivor count,[5],6 of 6
NC1CCc2cc(O)c(O)cc2C1 (stereo unspecified),T/C,"dose: 400.0 mg/kg/injection, schedule: Q04DX002 (ip), vehicle: saline",125 % of control
CN1c2ccccc2S(=O)(=O)n2c(COc3ccc(Cl)cc3)nnc21,survivor count,[6],6 of 6
same,survivor count,"dose: 100.0 mg/kg/injection, schedule: Q01DX005 (ip), vehicle: saline with Tween-80",6 of 6
same,survivor count,[7],6 of 6
C[n+]1ccc(CCNC2CCC(N=NC3CCC([N+](=O)[O-])CC3)CC2)cc1 (stereo unspecified),survivor count,[8],3 of 6
O=NNc1ccc(F)cn1,T/C,"dose: 6.25 mg/kg/injection, schedule: Q01DX009 (ip), vehicle: water",125 and 126 % of control
same,T/C,"dose: 12.5 mg/kg/injection, schedule: Q01DX009 (ip), vehicle: water",141 % of control
same,survivor count,"dose: 50.0 mg/kg/injection, schedule: Q01DX009 (ip), vehicle: water",5 of 6
Cc1cc(=O)[nH]c2ccc3ccccc3c12,survivor count,"dose: 50.0 mg/kg/injection, schedule: Q01DX005 (ip), vehicle: Klucel (hydroxypropylcellulose) (HPC)",5 of 5
same,survivor count,"dose: 100.0 mg/kg/injection, schedule: Q01DX005 (ip), vehicle: Klucel (hydroxypropylcellulose) (HPC)",5 of 5
same,survivor count,[9],5 of 5
CNC(=S)N/N=C(\C)C(C)(C)C,survivor count,[10],2 of 6
same,survivor count,"dose: 400.0 mg/kg/injection, schedule: Q04DX003 (ip), vehicle: saline",0 of 6
CSc1ncc2c(=O)c3c(ccc4ccccc43)oc2n1,survivor count,[11],6 of 6
same,survivor count,[3],6 of 6
same,survivor count,[4],6 of 6
same,survivor count,[1],6 of 6
same,survivor count,[5],6 of 6
C#CC[N+]12CN3CN(CN(C3)C1)C2,T/C,[12],126 % of control
CN(C)CC(Cl)CCl (stereo unspecified),T/C,[13],127 % of control
same,T/C,[8],145 % of control
same,T/C,[10],127 and 136 % of control
CCCCCCCCCCCCCCCCCCOCC(CO)OC (stereo unspecified),T/C,[7],125 % of control
Cc1cc(Cl)ccc1N=Cc1ccc(C=Nc2ccc(Cl)cc2C)cc1,survivor count,[2],6 of 6
same,survivor count,[14],5 of 6
same,survivor count,[15],6 of 6
O=C(NO)C(O)C(O)C(O)C(O)CO (stereo unspecified),survivor count,[8],6 of 6
CCOC(=O)/C=C(\C)Sc1cc(O)c2ccccc2c1O,survivor count,[3],2 of 6
same,survivor count,[4],1 of 6
same,survivor count,[1],1 of 6
same,survivor count,[5],0 of 6
COc1ccc2c(c1OC(C)=O)-c1cc(OC(C)=O)cc3c1C(C2)N(C(=O)CN(CCCl)CCCl)CC3 (stereo unspecified),T/C,"dose: 3.13 mg/kg/injection, schedule: Q04DX003 (ip), vehicle: other",138 % of control
same,survivor count,"dose: 100.0 mg/kg/injection, schedule: Q04DX003 (ip), vehicle: DMSO",3 of 6
same,survivor count,"dose: 200.0 mg/kg/injection, schedule: Q04DX003 (ip), vehicle: DMSO",0 of 6
same,survivor count,"dose: 400.0 mg/kg/injection, schedule: Q04DX003 (ip), vehicle: DMSO",0 of 6
COc1c(Br)cc(/C=C/[N+](=O)[O-])cc1Br,T/C,[3],133 % of control [5 of 6 alive]
CC[N+](CC)(CC)CC(=O)c1ccc(Br)cc1,survivor count,[8],2 of 6
CC(=O)OCc1c(COC(C)=O)c(-c2ccc(Cl)c(Cl)c2)n2c1CCC2,T/C,[2],141 % of control
same,T/C,[15],127 % of control
COc1cc2cc(c1Cl)N(C)C(=O)CC(OC(=O)C(C)N(C)C(=O)C(C)C)C1(C)OC1C(C)C1CC(O)(NC(=O)O1)C(OC)/C=C/C=C(C)C2 (stereo unspecified),T/C,"dose: 0.4 micrograms/kg/injection, schedule: Q01DX009 (ip), vehicle: saline",130 % of control
same,T/C,"dose: 0.8 micrograms/kg/injection, schedule: Q01DX009 (ip), vehicle: saline",135 % of control
same,T/C,"dose: 1.6 micrograms/kg/injection, schedule: Q01DX009 (ip), vehicle: saline",147 % of control
same,survivor count,"dose: 25.0 micrograms/kg/injection, schedule: Q01DX009 (ip), vehicle: saline + alcohol",9 of 10
same,survivor count,"dose: 50.0 micrograms/kg/injection, schedule: Q01DX009 (ip), vehicle: saline + alcohol",3 of 10
same,survivor count,"dose: 100.0 micrograms/kg/injection, schedule: Q01DX009 (ip), vehicle: saline + alcohol",8 of 10
same,survivor count,"dose: 200.0 micrograms/kg/injection, schedule: Q01DX009 (ip), vehicle: saline + alcohol",0 of 10
CCN(CC)CC(O)c1cc(-c2ccccc2)nc2ccc(OC)cc12 (stereo unspecified),survivor count,[9],0 of 6
OCCN1CCN(CCCN2c3ccccc3Sc3ccc(C(F)(F)F)cc32)CC1,T/C,"dose: 30.0 mg/kg/injection, schedule: Q04DX003 (ip), vehicle: saline",126 % of control
CCOc1ccc(/C=C/c2ccc3ccccc3[n+]2C)cc1OCC,T/C,"dose: 3.12 mg/kg/injection, schedule: Q01DX009 (ip), vehicle: saline with Tween-80",138 % of control
same,T/C,"dose: 6.25 mg/kg/injection, schedule: Q01DX009 (ip), vehicle: saline with Tween-80",130 % of control
same,T/C,[11],132 % of control
same,T/C,[3],138 % of control
Cc1ccc(NC(=S)N2CCCC2)cc1C,survivor count,[14],6 of 6
ClC(Cl)=Nc1ccc(Cl)cc1Cl,survivor count,[12],2 of 6
COC1=C(C2=C(OC)C(=O)c3cc4c(c(O)c3C2=O)C(=O)OC(C)C4)C(=O)c2c(cc3c(c2O)C(=O)OC(C)C3)C1=O (stereo unspecified),survivor count,[4],4 of 6
same,survivor count,[1],5 of 6
same,survivor count,[5],4 of 6
N#Cc1cnc(N)[nH]c1=O,survivor count,"dose: 120.0 mg/kg/injection, schedule: Q01DX005 (ip), vehicle: Klucel (hydroxypropylcellulose) (HPC)",0 of 6
same,survivor count,"dose: 240.0 mg/kg/injection, schedule: Q01DX005 (ip), vehicle: Klucel (hydroxypropylcellulose) (HPC)",0 of 6
CC(=O)Oc1cccnc1C(C#N)C#N,survivor count,[6],4 of 6
O=C(Cc1ccncc1)c1cccnc1,survivor count,"dose: 100.0 mg/kg/injection, schedule: Q01DX001 (ip), vehicle: saline",1 of 6
same,survivor count,"dose: 200.0 mg/kg/injection, schedule: Q01DX001 (ip), vehicle: saline",0 of 6
same,survivor count,"dose: 400.0 mg/kg/injection, schedule: Q01DX001 (ip), vehicle: saline",0 of 6
COc1ccc(/C=C/C(=O)CCC(=O)O)cc1OC,T/C,[8],133 % of control
same,T/C,[12],133 % of control
same,survivor count,"dose: 400.0 mg/kg/injection, schedule: Q01DX009 (ip), vehicle: saline",1 of 6
Cc1ccc(S(=O)(=O)Nc2nnc(-c3coc4ccc(C)cc4c3=O)s2)cc1,survivor count,[7],6 of 6
CCCCCCCCC[N+]1(CC)CCCC1,survivor count,[13],3 of 6
same,survivor count,[8],0 of 6
same,survivor count,[12],0 of 6
COc1cccc(C(=O)C(CN(C)C)CN(C)C)c1,survivor count,[13],0 of 6
same,survivor count,[8],0 of 6
same,survivor count,[12],0 of 6
Cc1ccc(N=Nc2c(O)n(-c3ccccc3C)c(=S)n(-c3ccc(Br)cc3)c2=O)cc1,survivor count,[5],3 of 6
